# Results taken from US6815459B2, “Seleno compounds containing nitrone moiety, their preparation and their therapeutic uses” (Sam-Sung Electronics Co., Ltd., priority 2001, dated 2004).
# At least one compound was matched to its structure with a doubt left.
# Key:
# [1] = Glutathione peroxidase like activity (NADPH-glutathione reductase coupled system); type: biochemical; conditions: 50 μM compound
# Experimental: Glutathione peroxidase like activity was determined by the reduction of GSSG formed via the NADPH-glutathione reductase system as an indicator system.
# To 350 of 50 mM Tris-HCl(pH 7.6) containing 5 mM of EDTA (assay buffer) are added in the following order:
# 1) 350 of assay buffer containing 6.4 mM of reduced glutathione (GSH), 640 μM of […] (NADPH), and 1.6 unit/mL of glutathione disulfide reductase (GR)
# 2) 70 of 800 μM of the test compound which was dissolved in DMSO (i.e., each compound was tested at a final concentration of 50 μM)
# 3) 350 of 0.007% tert-butyl hydroperoxide which was made by 1/10,000 dilution of tert-butyl hydroperoxide with DDW.
# The final reaction volume is 1120.
# The reaction was carried out at 25° C. […] The said activity or initial enzymatic rate is proportional to the slope of the variation of absorbance with time.
# The catalytic activity for oxygen reduction of the compounds tested corresponds to the rate of consumption of NADPH.
# They are expressed in n-moles of NADPH consumed per minute.
# [2] = Inhibition of lipid peroxidation of liposome (TBA method); type: biochemical; conditions: histidine-FeCl3/FeCl2, 37° C., 15 minutes, read-out: Inhibitor Concentration (IC50), lipid peroxidation
# Experimental: The compounds of the present invention were tested for antioxidant effect in terms of the repression of the radical chain reaction of a multilayer liposome.
# The liposome was prepared as followings: 30 mg of commercially available soybean phosphatidylcholine (PC, Sigma Chemical Co., U.S.A.) was dissolved in 1 mL of ethanol, and 200 of the ethanol/PC solution was added to 10 mL of 10 mM Tris buffer including 50 mM NaCl (pH 7.0) with stirring.
# The ability of a compound to inhibit oxidation of the liposome was evaluated as followings: To 400 of the liposomes were added the test compound (in buffer or ethanol) and histidine-FeCl3 (167:33 μM final). Oxidation was initiated by the addition of FeCl2 (33 μM final prepared in nitrogen purged water). The mixtures were shaken at 37° C. for 15 minutes. […]. The aliquots were heated to 100° C. for 20 minutes. After ice cooling, 1 mL of chloroform was added to 1 mL of supernatant from tubes and tubes were centrifuged. The absorbances of the resulting supernatant were measured at 532 nm (see: Table 2).
structure (smiles),measurement,setting,value
"O=c1c2ccccc2[se]n1-c1ccccc1 [Ebselen, reference compound]",Rate A340/min(30˜300 sec),[1]; 25° C.,−0.118 A340/min
same,Rate/0.00622 (nmol NADPH/min/mL),[1]; 25° C.,18.97 nmol NADPH/min/mL
same,% Ebselen (glutathione peroxidase activity),[1]; relative to Ebselen,100%
same,IC50,[2],148 µM
